Experimental findings from article PMC4869123 (Scientific Reports, 2016) are described below.

Where a sequence shows no end group, the ends are not given. Some peptides are written in HELM: one residue between dots, names in brackets for other building blocks, links after the first $.

A short description of this data set: general procedure: Fmoc solid-phase peptide synthesis; Rink resin. The following applies: for final HPLC purity: UV254.

Consider Ac-ITVTIPADLWDWIKK(Me) 2-NH 2, for which the “final HPLC purity” value (whole synthesis) stood at 95%. Turning to ITVK(PEG5)IPADLWDWINK(Me)2, where the note is “conjugation step”, the “final HPLC purity” value amounted to 95%. The same measure, in the same setting: the value for ITVK(PEG21)IPADLWDWINK(Me)2 was 95%; that for ITVTIPK(PEG5)DLWDWINK(Me)2 was 95%; that for ITVTIPK(PEG21)DLWDWINK(Me)2 was 95%.

On to IVVTMPADLWDWIRA (N-acetyl), for which, where the note is “whole synthesis”, the “final HPLC purity” value came to 95%. Still for that read-out and setting: the value for IVVTVPADLWDWIRA was 95%.

Turning to “PEPTIDE1{I.T.V.T.I.P.A.D.L.W.D.W.I.N.[KMe2].[am]}|PEPTIDE2{I.T.V.T.I.P.A.D.L.W.D.W.I.N.[KMe2].[am]}|CHEM1{[PEG21]}$PEPTIDE1,CHEM1,1:R1-1:R1|PEPTIDE2,CHEM1,1:R1-1:R2$$$V2.0”, the “final HPLC purity” value (conjugation step) is on record as 95%. With “PEPTIDE1{[ac].A.V.V.T.M.P.A.D.L.W.D.W.I.R.A.[am]}$$$$V2.0”, for the setting “whole synthesis”, the “final HPLC purity” value turned out to be 95%.

With “PEPTIDE1{[ac].H.V.T.I.P.A.D.L.W.D.W.I.N.K.[am]}$$$$V2.0”, the “final HPLC purity” value (whole synthesis) came out at 95%. Still for that read-out and setting: the result for “PEPTIDE1{[ac].I.A.V.T.M.P.A.D.L.W.D.W.I.R.A.[am]}$$$$V2.0” reads 93%; that for “PEPTIDE1{[ac].I.H.V.T.I.P.A.D.L.W.D.W.I.N.[am]}$$$$V2.0”, 95%; that for “PEPTIDE1{[ac].I.H.V.T.I.P.A.D.L.W.D.W.I.[am]}$$$$V2.0”, 95%. The same measure, in the same setting: the value for “PEPTIDE1{[ac].I.H.V.T.I.P.A.D.L.W.D.W.[am]}$$$$V2.0” was 95%. On the same count and under the same terms, the result for “PEPTIDE1{[ac].I.H.V.T.M.P.A.D.L.W.D.W.I.R.A.[am]}$$$$V2.0” reads 95%; that for “PEPTIDE1{[ac].I.Q.V.T.M.P.A.D.L.W.D.W.I.R.A.[am]}$$$$V2.0”, 95%; that for “PEPTIDE1{[ac].I.R.V.T.M.P.A.D.L.W.D.W.I.R.A.[am]}$$$$V2.0”, 95%. On to “PEPTIDE1{[ac].I.T.V.T.I.P.A.D.L.W.D.W.I.K.[KMe2].[am]}|PEPTIDE2{[PEG21NHEt]}$PEPTIDE1,PEPTIDE2,15:R3-1:R2$$$V2.0”, for which the “final HPLC purity” value (conjugation step) worked out at 95%. The substance further came in with a conjugation yield (conjugation step, on peptide 49) of 28%.

For the substance “PEPTIDE1{[ac].I.T.V.T.I.P.A.D.L.W.D.W.I.K.[KMe2].[am]}|PEPTIDE2{[ac].I.T.V.T.I.P.A.D.L.W.D.W.I.K.[KMe2].[am]}|CHEM1{[PEG21]}$PEPTIDE1,CHEM1,15:R3-1:R1|PEPTIDE2,CHEM1,15:R3-1:R2$$$V2.0”, the “final HPLC purity” value (conjugation step) came out at 95%. Further, the conjugation yield (conjugation step, on PEG21 bispentafluoroester 50) is reported as 74%. For “PEPTIDE1{[ac].I.T.V.T.I.P.A.D.L.W.D.W.I.N.[KMe2].[am]}$$$$V2.0”, under “whole synthesis”, the “final HPLC purity” value worked out at 95%. On the same count and under the same terms, the value for “PEPTIDE1{[ac].I.T.V.T.M.P.A.D.L.W.D.W.I.R.A.[am]}$$$$V2.0” was 95%. Same read-out and setting: the value for “PEPTIDE1{[ac].I.V.A.T.M.P.A.D.L.W.D.W.I.R.A.[am]}$$$$V2.0” was 93%; that for “PEPTIDE1{[ac].I.V.V.A.M.P.A.D.L.W.D.W.I.R.A.[am]}$$$$V2.0” was 95%; that for “PEPTIDE1{[ac].I.V.V.T.A.P.A.D.L.W.D.W.I.R.A.[am]}$$$$V2.0” was 95%.

As for “PEPTIDE1{[ac].I.V.V.T.I.P.A.D.L.W.D.W.I.R.A.[am]}$$$$V2.0”, the “final HPLC purity” value (whole synthesis) is 95%.

Turning to “PEPTIDE1{[ac].I.V.V.T.M.A.A.D.L.W.D.W.I.R.A.[am]}$$$$V2.0”, the “final HPLC purity” value (whole synthesis) is 93%.

Turning to “PEPTIDE1{[ac].I.V.V.T.M.P.A.A.L.W.D.W.I.R.A.[am]}$$$$V2.0”, the “final HPLC purity” value (whole synthesis) is 95%.

Regarding “PEPTIDE1{[ac].I.V.V.T.M.P.A.D.A.W.D.W.I.R.A.[am]}$$$$V2.0”, for the setting “whole synthesis”, the “final HPLC purity” value was found to be 95%. Same read-out and setting: the result for “PEPTIDE1{[ac].I.V.V.T.M.P.A.D.L.A.D.W.I.R.A.[am]}$$$$V2.0” reads 95%; that for “PEPTIDE1{[ac].I.V.V.T.M.P.A.D.L.W.A.W.I.R.A.[am]}$$$$V2.0”, 95%.

Turning to “PEPTIDE1{[ac].I.V.V.T.M.P.A.D.L.W.D.A.I.R.A.[am]}$$$$V2.0”, the “final HPLC purity” value (whole synthesis) is listed as 95%. Turning to “PEPTIDE1{[ac].I.V.V.T.M.P.A.D.L.W.D.W.A.R.A.[am]}$$$$V2.0”, the “final HPLC purity” value (whole synthesis) was 95%. “PEPTIDE1{[ac].I.V.V.T.M.P.A.D.L.W.D.W.I.A.A.[am]}$$$$V2.0”: the “final HPLC purity” value (whole synthesis) was 95%. The same measure, in the same setting: the value for “PEPTIDE1{[ac].I.V.V.T.M.P.A.D.L.W.D.W.I.K.A.[am]}$$$$V2.0” was 95%; that for “PEPTIDE1{[ac].I.V.V.T.M.P.A.D.L.W.D.W.I.M.A.[am]}$$$$V2.0” was 95%. Consider “PEPTIDE1{[ac].I.V.V.T.M.P.A.D.L.W.D.W.I.N.A.[am]}$$$$V2.0”, for which the “final HPLC purity” value (whole synthesis) was 95%.

As for “PEPTIDE1{[ac].I.V.V.T.M.P.A.D.L.W.D.W.I.R.A.[am]}$$$$V2.0”, under “whole synthesis”, the “final HPLC purity” value is on record as 95%. Still for that read-out and setting: the result for “PEPTIDE1{[ac].I.V.V.T.M.P.A.D.L.W.D.W.I.R.K.[am]}$$$$V2.0” reads 95%; that for “PEPTIDE1{[ac].I.W.V.T.M.P.A.D.L.W.D.W.I.R.A.[am]}$$$$V2.0”, 95%; that for “PEPTIDE1{[ac].I.Y.V.T.M.P.A.D.L.W.D.W.I.R.A.[am]}$$$$V2.0”, 95%. On the same count and under the same terms, the result for “PEPTIDE1{[ac].T.I.P.A.D.L.W.D.W.I.N.K.[am]}$$$$V2.0” reads 95%; that for “PEPTIDE1{[ac].V.T.I.P.A.D.L.W.D.W.I.N.K.[am]}$$$$V2.0”, 95%.
